Measured values taken from patent publication US12194036B2 (priority 2022, dated 2025).
Some results were stated once for a whole list of compounds, not compound by compound.

Assay: Pharmacokinetics after administration of the subject combination
Settings: given as the subject combination

For COc1ccc2c(c1)[C@]13CCCC[C@@H]1[C@H](C2)N(C)CC3 [dextromethorphan], the “time to achieve steady state plasma concentrations” value was ≤ 8 days.
